6 substances from patent US20040170969A1 can be followed below.

Chains of the proteins cited; added tags and fusions are not shown. Lines headed by an entry give the natural chain unless they say otherwise; changes in a name come on top. A line that says so, or that is headed by a name, gives the form on record, which may keep a tag or linker. Residues count along the entry.
protein 4.1 isoB (GI 182074) (P11171, form named): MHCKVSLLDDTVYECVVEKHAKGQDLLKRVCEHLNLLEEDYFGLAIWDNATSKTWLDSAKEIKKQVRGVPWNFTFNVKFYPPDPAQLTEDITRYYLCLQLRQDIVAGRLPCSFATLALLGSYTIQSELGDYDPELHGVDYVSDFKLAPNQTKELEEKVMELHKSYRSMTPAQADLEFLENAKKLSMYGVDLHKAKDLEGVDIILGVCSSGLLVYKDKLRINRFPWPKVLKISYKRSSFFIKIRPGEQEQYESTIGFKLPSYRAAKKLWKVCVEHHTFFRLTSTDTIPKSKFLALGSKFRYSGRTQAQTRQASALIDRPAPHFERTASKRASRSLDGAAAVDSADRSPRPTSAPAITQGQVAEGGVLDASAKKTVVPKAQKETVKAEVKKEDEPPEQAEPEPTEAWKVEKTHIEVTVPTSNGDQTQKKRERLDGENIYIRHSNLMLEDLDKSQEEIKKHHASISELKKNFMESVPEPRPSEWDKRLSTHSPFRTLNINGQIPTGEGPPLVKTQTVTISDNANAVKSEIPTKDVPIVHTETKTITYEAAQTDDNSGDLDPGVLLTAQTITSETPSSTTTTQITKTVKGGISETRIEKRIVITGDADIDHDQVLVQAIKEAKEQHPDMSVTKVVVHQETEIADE
UniProt P62318: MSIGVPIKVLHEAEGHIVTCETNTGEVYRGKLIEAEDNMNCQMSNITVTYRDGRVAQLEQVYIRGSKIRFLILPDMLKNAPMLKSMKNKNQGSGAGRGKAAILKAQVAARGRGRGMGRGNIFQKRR
pICln (GI 4502891) (P54105, residues 2-237): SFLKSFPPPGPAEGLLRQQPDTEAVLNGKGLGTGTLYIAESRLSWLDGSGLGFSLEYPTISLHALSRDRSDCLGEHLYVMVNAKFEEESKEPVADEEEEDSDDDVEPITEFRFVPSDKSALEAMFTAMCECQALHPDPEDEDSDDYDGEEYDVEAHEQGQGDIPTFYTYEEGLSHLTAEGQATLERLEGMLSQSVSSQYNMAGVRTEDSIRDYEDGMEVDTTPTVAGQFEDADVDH
FLAG-pICln (P54105, form named): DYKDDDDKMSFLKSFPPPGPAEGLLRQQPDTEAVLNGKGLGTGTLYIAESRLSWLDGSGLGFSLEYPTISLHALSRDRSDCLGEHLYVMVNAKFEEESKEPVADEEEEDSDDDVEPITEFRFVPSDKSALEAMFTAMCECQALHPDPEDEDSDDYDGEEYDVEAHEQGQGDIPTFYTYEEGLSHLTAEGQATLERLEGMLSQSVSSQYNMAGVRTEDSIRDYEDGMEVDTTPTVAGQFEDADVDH
UniProt P57678: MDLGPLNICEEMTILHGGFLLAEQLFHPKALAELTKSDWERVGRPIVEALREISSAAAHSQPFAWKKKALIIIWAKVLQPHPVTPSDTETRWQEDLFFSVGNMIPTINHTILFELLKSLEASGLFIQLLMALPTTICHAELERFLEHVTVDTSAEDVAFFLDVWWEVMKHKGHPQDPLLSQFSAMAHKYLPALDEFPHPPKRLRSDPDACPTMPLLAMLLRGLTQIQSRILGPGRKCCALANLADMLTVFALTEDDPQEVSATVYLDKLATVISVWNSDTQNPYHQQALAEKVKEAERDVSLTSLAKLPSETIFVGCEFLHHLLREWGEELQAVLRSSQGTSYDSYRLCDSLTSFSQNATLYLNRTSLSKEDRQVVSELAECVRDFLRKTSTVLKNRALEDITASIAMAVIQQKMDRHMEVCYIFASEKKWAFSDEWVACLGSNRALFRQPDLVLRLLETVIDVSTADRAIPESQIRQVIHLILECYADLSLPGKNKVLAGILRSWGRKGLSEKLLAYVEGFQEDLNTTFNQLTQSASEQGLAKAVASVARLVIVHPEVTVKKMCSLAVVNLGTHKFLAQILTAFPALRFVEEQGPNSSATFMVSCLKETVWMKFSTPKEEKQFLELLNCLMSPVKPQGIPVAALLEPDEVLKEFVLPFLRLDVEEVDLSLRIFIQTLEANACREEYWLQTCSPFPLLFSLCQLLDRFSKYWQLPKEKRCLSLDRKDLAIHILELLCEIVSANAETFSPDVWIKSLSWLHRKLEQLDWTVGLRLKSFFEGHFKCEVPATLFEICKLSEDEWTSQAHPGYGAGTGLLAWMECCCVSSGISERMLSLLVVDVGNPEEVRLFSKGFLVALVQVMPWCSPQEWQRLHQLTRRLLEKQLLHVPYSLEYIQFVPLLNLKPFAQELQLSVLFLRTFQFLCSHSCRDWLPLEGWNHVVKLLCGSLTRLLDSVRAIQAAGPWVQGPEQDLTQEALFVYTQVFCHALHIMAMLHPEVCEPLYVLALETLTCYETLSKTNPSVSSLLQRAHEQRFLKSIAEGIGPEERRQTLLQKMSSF
UniProt O14744: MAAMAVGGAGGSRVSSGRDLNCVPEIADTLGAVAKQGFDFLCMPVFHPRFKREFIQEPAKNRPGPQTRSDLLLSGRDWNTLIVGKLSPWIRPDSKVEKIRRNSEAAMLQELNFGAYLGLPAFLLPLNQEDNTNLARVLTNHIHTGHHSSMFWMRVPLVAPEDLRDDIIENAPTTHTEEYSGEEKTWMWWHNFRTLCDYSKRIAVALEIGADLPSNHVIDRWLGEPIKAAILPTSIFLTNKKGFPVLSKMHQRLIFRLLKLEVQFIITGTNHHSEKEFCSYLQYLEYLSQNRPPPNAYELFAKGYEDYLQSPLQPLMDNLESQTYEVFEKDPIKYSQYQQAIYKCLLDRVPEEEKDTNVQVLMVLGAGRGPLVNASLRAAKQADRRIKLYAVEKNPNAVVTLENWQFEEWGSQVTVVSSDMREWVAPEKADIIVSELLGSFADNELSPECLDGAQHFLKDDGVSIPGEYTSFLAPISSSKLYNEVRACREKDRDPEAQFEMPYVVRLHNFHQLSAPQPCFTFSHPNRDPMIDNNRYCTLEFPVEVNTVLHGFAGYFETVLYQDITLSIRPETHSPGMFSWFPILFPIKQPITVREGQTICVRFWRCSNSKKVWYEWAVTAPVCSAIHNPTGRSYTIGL

These are yes or no findings as the source states them, for the method shown. In cells and extracts the contact can be indirect. Some entries that bind do so weakly or less than the wild type. For part of these data: Tags and fused reporters may be left off the sequences shown.

In assay [1] the target is 4.1SVWL2 (bait) (human) (UniProt P11171). Briefly: co-IP with 4.1SVWL2 bait, MS.
Assay [2] has as its target smD3 (bait) (UniProt P62318). The assay can be described thus: co-IP with smD3 bait, MS.
Assay [3] has as its target FLAG-pICln (human) (UniProt P54105). The assay can be described thus: anti-FLAG co-IP of FLAG-pICln, MS.
For assay [4] the target is unchanged. The assay can be described thus: anti-FLAG co-IP of FLAG-pICln from 293T cells, MS.
Assay [5] addresses T1, Flag-epitope-tagged murine Ras-GRF2 (murine) (UniProt P70392).
T1 sequence (looked up): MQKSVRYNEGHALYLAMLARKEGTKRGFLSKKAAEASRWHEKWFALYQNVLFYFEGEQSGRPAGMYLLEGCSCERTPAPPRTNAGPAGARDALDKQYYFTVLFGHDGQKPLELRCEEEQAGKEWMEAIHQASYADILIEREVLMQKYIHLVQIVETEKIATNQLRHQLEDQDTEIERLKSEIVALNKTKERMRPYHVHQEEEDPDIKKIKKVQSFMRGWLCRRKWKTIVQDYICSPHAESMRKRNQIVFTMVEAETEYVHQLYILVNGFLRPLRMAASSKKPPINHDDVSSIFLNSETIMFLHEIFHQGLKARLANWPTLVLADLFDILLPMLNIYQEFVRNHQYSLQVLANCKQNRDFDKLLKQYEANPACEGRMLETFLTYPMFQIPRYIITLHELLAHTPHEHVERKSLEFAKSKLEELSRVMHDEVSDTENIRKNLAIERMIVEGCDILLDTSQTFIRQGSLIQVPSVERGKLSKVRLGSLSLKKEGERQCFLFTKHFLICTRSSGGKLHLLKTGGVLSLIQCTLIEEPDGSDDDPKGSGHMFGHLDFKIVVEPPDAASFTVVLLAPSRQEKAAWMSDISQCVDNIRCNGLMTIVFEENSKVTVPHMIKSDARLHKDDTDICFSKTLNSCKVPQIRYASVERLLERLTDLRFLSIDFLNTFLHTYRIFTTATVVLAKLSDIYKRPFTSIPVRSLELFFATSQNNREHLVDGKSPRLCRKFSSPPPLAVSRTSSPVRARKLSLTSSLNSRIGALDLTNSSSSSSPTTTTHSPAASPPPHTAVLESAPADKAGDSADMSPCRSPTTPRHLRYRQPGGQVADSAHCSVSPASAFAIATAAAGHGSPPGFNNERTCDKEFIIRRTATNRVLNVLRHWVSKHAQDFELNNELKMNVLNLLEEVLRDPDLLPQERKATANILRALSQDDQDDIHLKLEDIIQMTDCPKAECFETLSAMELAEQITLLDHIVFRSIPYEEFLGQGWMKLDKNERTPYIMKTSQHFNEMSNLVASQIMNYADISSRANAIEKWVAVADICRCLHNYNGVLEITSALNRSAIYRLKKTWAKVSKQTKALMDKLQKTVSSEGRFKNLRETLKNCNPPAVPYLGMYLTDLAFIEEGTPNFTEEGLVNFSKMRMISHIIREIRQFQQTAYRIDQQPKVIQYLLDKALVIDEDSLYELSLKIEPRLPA
The assay can be described thus: anti-FLAG co-IP of Flag-GRF2, MS.

The target of assay [6] is T1, Flag-epitope-tagged murine Ras-GRF2 (murine). Briefly: anti-FLAG co-IP of Flag-GRF2 from 293 cells, MS.

Turning to “pICln (GI 4502891) (from UniProt P54105 2-237)”, in assay [1], the binding result is listed as “binds”.
“DKFZP434D174 protein (GI 11094403) (from UniProt P57678 1-1058)”: the binding result in assay [2] is reported as “binds”.
For the substance “protein 4.1 isoB (GI 182074) (from UniProt P11171 1-641)”, the binding entry in assay [3] and in assay [4] was “binds” in each case.
For “gemin4 (GI 7657122) (from UniProt P57678 1-1058)”, the binding result in assay [2] is listed as “binds”.
As to “SMD3 (GI 4759160) (from UniProt P62318 2-126)”, the binding result in assay [3] and in assay [4] was “binds” each time.
As for “Skb1 (GI 2323410) (from UniProt O14744 1-637) (enzyme)”, the binding result in assay [5] and in assay [6] was “binds” throughout.
